This passage reports binding results from PMC13239758.

No constants are given. Whether binding was seen depends on the method and setting. Binding seen in cells or lysates may run through a third protein. A result given as binding can be weak or reduced; the word gives no strength. Tags and fused reporters may be left off the sequences shown.

In this assay the target is T1, GFP-CD63 full length (UniProt P41731).
T1 sequence: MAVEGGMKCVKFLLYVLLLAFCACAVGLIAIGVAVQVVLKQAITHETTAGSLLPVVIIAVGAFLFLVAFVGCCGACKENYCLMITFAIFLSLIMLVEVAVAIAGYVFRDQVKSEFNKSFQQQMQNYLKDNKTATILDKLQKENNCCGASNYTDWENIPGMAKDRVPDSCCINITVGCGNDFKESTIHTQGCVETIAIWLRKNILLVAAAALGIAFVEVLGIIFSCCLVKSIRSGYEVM
The assay is described as follows: co-IP; HEK293T cells co-transfected with GFP-CD63 (full length or truncates) and Flag- or Myc-tagged NLRP3 or ASC constructs; lysed after 36 h, IP with 1 μg Flag, GFP or Myc antibody, immunoblot. Background: Immunoblotting shows a protein as a band on a membrane.

Consider “Flag–NBD (nucleotide-binding domain of NLRP3) (domain or fragment)”, for which the binding entry was “binds”.
